# Residue numbers refer to the chain shown, from its start. The list shows a part of the results, in another mix than the full data. Calls are pooled over several reports, among them a noisy single-well screen. The list shows a part of the results.
# Sequences of proteins named here, by UniProt entry; tags and fusion partners are left off. A line that says so, or that is headed by a name, gives the form on record, which may keep a tag or linker.
# UniProt E9Q891, as listed by the source: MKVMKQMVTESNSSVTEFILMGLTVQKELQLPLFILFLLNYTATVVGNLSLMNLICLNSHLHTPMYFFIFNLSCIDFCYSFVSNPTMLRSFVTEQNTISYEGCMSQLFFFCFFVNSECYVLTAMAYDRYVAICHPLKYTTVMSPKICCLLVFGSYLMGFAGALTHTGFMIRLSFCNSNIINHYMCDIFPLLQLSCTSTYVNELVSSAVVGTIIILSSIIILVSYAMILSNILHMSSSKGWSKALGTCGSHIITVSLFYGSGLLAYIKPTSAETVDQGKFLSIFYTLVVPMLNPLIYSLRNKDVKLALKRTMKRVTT
# UniProt K7N5T5, as listed by the source: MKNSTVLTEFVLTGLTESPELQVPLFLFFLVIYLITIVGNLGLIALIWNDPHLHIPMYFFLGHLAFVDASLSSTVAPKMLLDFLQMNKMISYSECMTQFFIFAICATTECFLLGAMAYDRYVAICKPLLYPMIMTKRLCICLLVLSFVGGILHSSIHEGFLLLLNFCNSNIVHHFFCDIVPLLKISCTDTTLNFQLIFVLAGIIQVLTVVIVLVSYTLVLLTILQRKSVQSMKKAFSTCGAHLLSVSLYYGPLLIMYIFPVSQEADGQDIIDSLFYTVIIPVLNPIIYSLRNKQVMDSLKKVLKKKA
# UniProt L7N1Y8, as listed by the source: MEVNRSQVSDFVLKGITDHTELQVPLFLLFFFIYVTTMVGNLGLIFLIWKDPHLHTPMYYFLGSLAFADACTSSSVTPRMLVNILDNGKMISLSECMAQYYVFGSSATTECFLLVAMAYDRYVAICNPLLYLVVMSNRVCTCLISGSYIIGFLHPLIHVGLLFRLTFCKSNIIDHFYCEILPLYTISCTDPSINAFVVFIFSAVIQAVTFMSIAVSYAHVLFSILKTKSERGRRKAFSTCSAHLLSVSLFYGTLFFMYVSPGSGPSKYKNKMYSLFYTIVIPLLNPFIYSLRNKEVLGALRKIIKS
# UniProt Q7TR75, as listed by the source: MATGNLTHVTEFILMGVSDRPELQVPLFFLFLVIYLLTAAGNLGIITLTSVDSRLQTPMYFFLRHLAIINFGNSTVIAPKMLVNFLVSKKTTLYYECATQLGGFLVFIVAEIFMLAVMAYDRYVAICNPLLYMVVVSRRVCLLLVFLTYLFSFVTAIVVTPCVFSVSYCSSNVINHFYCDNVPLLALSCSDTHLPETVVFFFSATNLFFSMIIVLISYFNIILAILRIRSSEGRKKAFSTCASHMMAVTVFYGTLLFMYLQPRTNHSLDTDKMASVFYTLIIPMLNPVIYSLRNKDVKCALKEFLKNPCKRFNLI
# UniProt Q7TRA2, as listed by the source: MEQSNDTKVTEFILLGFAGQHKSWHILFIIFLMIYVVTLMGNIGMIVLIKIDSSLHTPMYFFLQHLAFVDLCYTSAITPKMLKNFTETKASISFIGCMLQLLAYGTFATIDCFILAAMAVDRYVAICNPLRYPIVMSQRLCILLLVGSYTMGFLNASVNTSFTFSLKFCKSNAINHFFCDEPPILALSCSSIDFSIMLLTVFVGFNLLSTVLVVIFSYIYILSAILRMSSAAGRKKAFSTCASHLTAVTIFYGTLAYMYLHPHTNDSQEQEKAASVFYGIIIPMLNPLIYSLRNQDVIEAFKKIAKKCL
# Assays:
# Details in all cases: stereoisomer not certain
# [1] = biological target: T1, UniProt E9Q6Z7
# T1 sequence (whole entry): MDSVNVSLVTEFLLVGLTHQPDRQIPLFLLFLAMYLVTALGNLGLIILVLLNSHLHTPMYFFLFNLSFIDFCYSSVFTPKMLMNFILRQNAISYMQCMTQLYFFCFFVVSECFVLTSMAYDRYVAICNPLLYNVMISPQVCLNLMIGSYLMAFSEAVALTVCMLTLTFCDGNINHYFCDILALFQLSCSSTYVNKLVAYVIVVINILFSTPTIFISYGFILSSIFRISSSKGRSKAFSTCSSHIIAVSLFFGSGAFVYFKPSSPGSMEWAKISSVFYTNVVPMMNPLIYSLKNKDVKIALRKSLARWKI
# How it was run: (§1)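 Values were gathered from published papers (main text and supplementary material), with extra details requested from the original authors when needed, and checked for typos and inconsistencies. Each receptor–molecule pair is called responsive (active) if the original authors judged the measured signal statistically different from baseline, and non-responsive (inactive) otherwise. Assay methods varied by source, often transient mammalian cell-line luciferase assays. Recorded details include cell line, G-protein, co-transfected protein and tags.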
# [2] = biological target: T2, UniProt L7MU75
# T2 sequence (whole entry): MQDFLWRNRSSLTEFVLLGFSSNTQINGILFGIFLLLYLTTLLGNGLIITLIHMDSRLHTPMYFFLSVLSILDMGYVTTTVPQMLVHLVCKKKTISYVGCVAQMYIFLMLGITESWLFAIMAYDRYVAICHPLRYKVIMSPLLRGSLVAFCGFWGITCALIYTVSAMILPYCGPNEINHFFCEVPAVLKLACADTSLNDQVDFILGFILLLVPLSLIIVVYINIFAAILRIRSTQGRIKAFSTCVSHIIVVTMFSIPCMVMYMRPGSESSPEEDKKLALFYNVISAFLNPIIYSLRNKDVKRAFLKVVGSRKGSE
# How it was run: as §1
# [3] = biological target: T3, UniProt L7N210
# T3 sequence (whole entry): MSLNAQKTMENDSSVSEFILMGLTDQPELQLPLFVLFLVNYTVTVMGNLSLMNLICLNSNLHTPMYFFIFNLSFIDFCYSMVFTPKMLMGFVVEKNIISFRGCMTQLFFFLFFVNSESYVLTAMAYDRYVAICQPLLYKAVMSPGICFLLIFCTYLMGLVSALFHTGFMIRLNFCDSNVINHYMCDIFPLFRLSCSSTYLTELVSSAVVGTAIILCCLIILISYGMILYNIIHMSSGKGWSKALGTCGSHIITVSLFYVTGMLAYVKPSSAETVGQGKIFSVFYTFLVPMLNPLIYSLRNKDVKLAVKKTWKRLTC
# How it was run: as §1
# [4] = biological target: T4, UniProt Q3KPB0
# T4 sequence (whole entry): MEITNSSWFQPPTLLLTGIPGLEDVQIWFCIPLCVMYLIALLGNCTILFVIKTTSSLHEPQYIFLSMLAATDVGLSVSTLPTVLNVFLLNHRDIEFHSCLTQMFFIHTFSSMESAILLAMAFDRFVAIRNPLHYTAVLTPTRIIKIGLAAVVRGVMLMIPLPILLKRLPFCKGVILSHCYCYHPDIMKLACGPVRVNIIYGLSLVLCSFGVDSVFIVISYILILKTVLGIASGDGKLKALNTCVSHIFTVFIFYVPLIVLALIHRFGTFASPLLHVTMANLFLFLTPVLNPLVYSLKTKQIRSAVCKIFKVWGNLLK
# How it was run: as §1
# [5] = biological target: T5, UniProt Q3U0P3
# T5 sequence (whole entry): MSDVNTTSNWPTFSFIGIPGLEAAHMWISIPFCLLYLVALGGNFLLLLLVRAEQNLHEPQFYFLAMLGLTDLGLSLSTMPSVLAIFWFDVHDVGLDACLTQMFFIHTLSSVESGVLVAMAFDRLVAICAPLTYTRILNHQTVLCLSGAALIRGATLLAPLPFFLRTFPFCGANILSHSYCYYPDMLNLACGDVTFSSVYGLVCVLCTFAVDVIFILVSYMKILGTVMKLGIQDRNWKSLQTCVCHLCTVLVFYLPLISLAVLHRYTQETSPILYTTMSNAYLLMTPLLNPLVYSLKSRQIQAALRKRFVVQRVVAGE
# How it was run: as §1
# [6] = biological target: T6, UniProt Q7TQU8
# T6 sequence (whole entry): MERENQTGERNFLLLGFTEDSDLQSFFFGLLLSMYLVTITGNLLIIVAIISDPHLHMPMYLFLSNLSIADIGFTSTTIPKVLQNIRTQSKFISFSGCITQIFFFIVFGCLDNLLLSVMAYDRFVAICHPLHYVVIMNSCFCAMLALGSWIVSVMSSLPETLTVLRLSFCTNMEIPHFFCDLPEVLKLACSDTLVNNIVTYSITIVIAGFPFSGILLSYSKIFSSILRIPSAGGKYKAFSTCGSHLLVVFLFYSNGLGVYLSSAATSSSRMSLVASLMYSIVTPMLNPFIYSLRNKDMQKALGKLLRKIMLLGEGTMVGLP
# How it was run: as §1
# [7] = biological target: T7, UniProt Q7TR79
# T7 sequence (whole entry): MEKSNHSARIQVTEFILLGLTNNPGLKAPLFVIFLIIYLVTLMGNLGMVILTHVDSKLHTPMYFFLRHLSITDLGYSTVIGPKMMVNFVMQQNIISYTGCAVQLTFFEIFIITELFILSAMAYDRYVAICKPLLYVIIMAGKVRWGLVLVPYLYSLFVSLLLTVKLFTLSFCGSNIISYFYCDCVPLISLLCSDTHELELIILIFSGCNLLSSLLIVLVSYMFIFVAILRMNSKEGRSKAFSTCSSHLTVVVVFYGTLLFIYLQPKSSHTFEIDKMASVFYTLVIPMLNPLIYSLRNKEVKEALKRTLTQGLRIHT
# How it was run: as §1
# [8] = biological target: T8, UniProt K7N609
# T8 sequence (whole entry): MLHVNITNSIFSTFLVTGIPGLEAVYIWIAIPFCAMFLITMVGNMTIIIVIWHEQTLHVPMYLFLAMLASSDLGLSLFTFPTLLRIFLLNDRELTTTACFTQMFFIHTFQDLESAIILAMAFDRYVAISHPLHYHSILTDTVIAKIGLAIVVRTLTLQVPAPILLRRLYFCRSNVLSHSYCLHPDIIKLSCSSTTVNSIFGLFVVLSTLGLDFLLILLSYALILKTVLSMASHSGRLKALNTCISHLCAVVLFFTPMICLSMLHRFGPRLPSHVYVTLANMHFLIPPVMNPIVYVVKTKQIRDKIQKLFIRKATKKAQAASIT
# How it was run: as §1
# [9] = biological target: T9, UniProt Q7TQV4
# T9 sequence (whole entry): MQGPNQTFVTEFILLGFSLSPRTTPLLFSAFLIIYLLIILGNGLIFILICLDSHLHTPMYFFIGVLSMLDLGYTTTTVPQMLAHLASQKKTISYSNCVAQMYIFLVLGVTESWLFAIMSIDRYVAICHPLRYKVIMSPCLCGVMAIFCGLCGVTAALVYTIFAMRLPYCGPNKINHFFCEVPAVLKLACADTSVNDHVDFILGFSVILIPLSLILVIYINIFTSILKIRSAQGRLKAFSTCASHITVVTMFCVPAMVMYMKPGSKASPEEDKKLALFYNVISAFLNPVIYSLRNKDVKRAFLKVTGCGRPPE
# How it was run: as §1
# [10] = biological target: T10, UniProt Q7TR71
# T10 sequence (whole entry): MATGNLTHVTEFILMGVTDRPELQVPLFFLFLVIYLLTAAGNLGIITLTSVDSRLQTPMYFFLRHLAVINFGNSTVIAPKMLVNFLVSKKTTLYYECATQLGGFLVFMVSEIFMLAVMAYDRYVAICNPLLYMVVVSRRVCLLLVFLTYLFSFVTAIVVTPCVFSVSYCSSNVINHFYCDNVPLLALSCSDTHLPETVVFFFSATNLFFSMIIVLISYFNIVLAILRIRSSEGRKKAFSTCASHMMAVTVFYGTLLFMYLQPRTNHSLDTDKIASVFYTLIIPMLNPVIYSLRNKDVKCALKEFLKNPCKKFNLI
# How it was run: as §1
# [11] = biological target: T11, UniProt Q7TRA3
# T11 sequence (whole entry): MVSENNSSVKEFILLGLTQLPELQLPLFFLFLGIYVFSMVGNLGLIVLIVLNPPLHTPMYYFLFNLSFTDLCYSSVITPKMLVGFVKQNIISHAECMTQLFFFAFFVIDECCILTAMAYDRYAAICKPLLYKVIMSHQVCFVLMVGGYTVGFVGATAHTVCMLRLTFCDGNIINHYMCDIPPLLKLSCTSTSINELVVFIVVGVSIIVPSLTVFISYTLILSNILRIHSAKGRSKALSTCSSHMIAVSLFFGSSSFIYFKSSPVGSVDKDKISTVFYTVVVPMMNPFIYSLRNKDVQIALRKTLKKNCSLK
# How it was run: as §1
# [12] = biological target: T12, UniProt E9Q9Z6
# T12 sequence (whole entry): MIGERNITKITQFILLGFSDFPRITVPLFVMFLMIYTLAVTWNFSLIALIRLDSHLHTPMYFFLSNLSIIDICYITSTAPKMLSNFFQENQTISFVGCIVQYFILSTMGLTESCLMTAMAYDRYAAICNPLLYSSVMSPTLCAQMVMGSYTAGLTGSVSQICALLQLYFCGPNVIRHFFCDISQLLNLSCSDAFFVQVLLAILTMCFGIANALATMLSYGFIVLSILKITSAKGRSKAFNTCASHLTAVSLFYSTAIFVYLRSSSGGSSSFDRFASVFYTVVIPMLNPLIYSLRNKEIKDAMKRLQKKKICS
# How it was run: as §1
# [13] = biological target: UniProt E9Q891
# How it was run: as §1
# [14] = biological target: UniProt K7N5T5
# How it was run: as §1
# [15] = biological target: UniProt L7N1Y8
# How it was run: as §1
# [16] = biological target: UniProt Q7TR75
# How it was run: as §1
# [17] = biological target: T13, UniProt Q7TRA1
# T13 sequence (whole entry): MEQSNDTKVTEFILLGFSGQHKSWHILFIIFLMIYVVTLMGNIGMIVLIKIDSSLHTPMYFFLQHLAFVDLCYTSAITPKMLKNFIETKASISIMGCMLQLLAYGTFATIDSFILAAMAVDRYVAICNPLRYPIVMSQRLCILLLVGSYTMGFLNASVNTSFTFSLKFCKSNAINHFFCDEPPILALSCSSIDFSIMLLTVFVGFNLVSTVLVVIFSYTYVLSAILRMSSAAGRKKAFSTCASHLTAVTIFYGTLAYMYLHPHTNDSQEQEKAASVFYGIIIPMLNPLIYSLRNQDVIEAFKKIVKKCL
# How it was run: as §1
# [18] = biological target: T14, UniProt Q7TRA2
# T14 sequence (whole entry): T13 sequence (whole entry) with S18A, I86T, I94F, M95I, S112C, V208L, T219I, V221I, V305A
# How it was run: as §1
smiles,measurement,setting,value
CC(=O)C(C)=O,odorant receptor agonist call,[1],inactive
same,odorant receptor agonist call,[2],inactive
same,odorant receptor agonist call,[3],inactive
same,odorant receptor agonist call,[4],inactive
same,odorant receptor agonist call,[5],inactive
same,odorant receptor agonist call,[6],inactive
same,odorant receptor agonist call,[7],inactive
CCCCCC(=O)O,odorant receptor agonist call,[1],inactive
same,odorant receptor agonist call,[8],inactive
same,odorant receptor agonist call,[2],inactive
same,odorant receptor agonist call,[3],inactive
same,odorant receptor agonist call,[4],inactive
same,odorant receptor agonist call,[5],inactive
same,odorant receptor agonist call,[6],inactive
same,odorant receptor agonist call,[9],inactive
same,odorant receptor agonist call,[10],inactive
same,odorant receptor agonist call,[7],inactive
same,odorant receptor agonist call,[11],inactive
C=CC(C)(O)CCC=C(C)C (centres undefined),odorant receptor agonist call,[1],inactive
same,odorant receptor agonist call,[2],inactive
same,odorant receptor agonist call,[3],inactive
same,odorant receptor agonist call,[4],inactive
same,odorant receptor agonist call,[5],inactive
same,odorant receptor agonist call,[6],inactive
same,odorant receptor agonist call,[7],inactive
CC12CCC(CC1)C(C)(C)O2,odorant receptor agonist call,[1],inactive
same,odorant receptor agonist call,[2],inactive
same,odorant receptor agonist call,[3],inactive
same,odorant receptor agonist call,[4],inactive
same,odorant receptor agonist call,[5],inactive
same,odorant receptor agonist call,[6],inactive
same,odorant receptor agonist call,[7],inactive
CC12CCC(C1)C(C)(C)C2=O (centres undefined),odorant receptor agonist call,[8],inactive
same,odorant receptor agonist call,[2],inactive
same,odorant receptor agonist call,[3],inactive
same,odorant receptor agonist call,[9],inactive
same,odorant receptor agonist call,[10],inactive
same,odorant receptor agonist call,[11],inactive
O=C1CCCCC1,odorant receptor agonist call,[12],inactive
same,odorant receptor agonist call,[8],inactive
same,odorant receptor agonist call,[2],inactive
same,odorant receptor agonist call,[3],inactive
same,odorant receptor agonist call,[9],active
same,odorant receptor agonist call,[10],active
same,odorant receptor agonist call,[11],inactive
CCCCO,odorant receptor agonist call,[1],inactive
same,odorant receptor agonist call,[2],inactive
same,odorant receptor agonist call,[3],inactive
same,odorant receptor agonist call,[4],inactive
same,odorant receptor agonist call,[5],inactive
same,odorant receptor agonist call,[6],inactive
same,odorant receptor agonist call,[7],inactive
CC(=O)c1ccccc1,odorant receptor agonist call,[1],inactive
same,odorant receptor agonist call,[13],active
same,odorant receptor agonist call,[14],inactive
same,odorant receptor agonist call,[8],inactive
same,odorant receptor agonist call,[2],inactive
same,odorant receptor agonist call,[15],active
same,odorant receptor agonist call,[3],active
same,odorant receptor agonist call,[4],inactive
same,odorant receptor agonist call,[5],inactive
same,odorant receptor agonist call,[6],inactive
same,odorant receptor agonist call,[9],active
same,odorant receptor agonist call,[10],active
same,odorant receptor agonist call,[16],active
same,odorant receptor agonist call,[7],inactive
same,odorant receptor agonist call,[17],inactive
same,odorant receptor agonist call,[18],inactive
same,odorant receptor agonist call,[11],active

# Reference: the M2OR odorant receptor database
